Library screening results

By UniProt entry, the sequences of proteins in these tests, tags left out.
UniProt E9BF75, entry or part of it: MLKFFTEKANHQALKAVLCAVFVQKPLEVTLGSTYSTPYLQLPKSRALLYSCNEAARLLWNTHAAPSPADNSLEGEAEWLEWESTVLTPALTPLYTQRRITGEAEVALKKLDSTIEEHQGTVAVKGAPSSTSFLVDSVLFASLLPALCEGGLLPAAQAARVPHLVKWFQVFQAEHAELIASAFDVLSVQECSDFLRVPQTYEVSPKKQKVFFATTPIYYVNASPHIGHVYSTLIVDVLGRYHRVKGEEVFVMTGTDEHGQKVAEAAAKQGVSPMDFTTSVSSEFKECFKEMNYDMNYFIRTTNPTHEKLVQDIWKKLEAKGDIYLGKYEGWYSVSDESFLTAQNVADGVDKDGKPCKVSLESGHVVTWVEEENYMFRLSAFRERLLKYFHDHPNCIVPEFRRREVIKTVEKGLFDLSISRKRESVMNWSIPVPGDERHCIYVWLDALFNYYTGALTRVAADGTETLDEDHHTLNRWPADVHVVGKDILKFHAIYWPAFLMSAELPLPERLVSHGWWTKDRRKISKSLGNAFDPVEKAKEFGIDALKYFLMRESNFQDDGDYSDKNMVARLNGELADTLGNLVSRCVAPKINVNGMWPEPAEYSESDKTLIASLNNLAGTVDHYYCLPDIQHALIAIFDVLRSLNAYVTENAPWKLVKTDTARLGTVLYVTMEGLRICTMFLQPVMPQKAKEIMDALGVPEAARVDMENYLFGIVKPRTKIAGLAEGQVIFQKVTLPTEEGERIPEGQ

The values are deposited in ChEMBL (CHEMBL3988442, “University of Dundee, Small-Polar-MMV Screening Library” (2021)).

Mtb heat-shock: 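Assay on Mycobacterium tuberculosis, filed only as a heat shock assay from Cornell; the read-out is not stated. The concentration is filed as 10 mM, unlikely as a test dose, so the dose is not known. Direction is inferred from retests: higher values go with stronger inhibition. About 69,000 compounds were tested under these conditions; 1.4% (about 930) showed 50% or more at least once.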
LdMetRS: 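Primary screen of methionyl-tRNA synthetase; the read-out is not stated. Target: Methionyl-tRNA synthetase (putative), Leishmania donovani (UniProt E9BF75). The test concentration is not given. Values are per cent inhibition. About 68,000 compounds were tested under these conditions; 0.035% (about 24) showed 50% or more at least once.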
Mtb growth Cornell: 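Whole-cell assay for inhibitors of Mycobacterium tuberculosis growth, labelled Cornell in the record; the read-out is not stated. The concentration is filed as 10 mM, unlikely as a test dose, so the dose is not known. The record gives no direction; compounds strong in two other growth screens of this library score well above the rest, so higher reads as stronger inhibition. Of about 53,000 compounds tested this way, about 900 (1.7%) reached 50% or more in at least one test.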

All values are in %. The controls that fix the scale are not given in the record; negative values are as filed. This is an unselected part of the compounds tested. A dash means the value is not listed here; it may have been measured.

Compound,Mtb heat-shock,LdMetRS,Mtb growth Cornell
Cc1cc(N(C)C)nc(C2(C)CCCN2C(=O)c2cnccn2)n1 (configuration not stated),0.4537,15.68,-
O=c1c(NCCc2ccc(O)cc2)c(NCc2ccco2)c1=O,2.465,11.9,25.52
Cc1cccc(-c2nnn3c2COC(CNCc2nccs2)C3)c1.O=C(O)C(F)(F)F (configuration not stated),-29.09,-,-
Cc1nc(CN2CC(=O)N(C)c3ccccc3C2=O)no1,-12.02,8.059,-
CN(Cc1cncnc1)[C@H]1CN(C(=O)c2ccco2)[C@@H]2CCCO[C@@H]21,-,9.302,-
CC(=O)c1cccc(OCCCC(=O)N(C)CCc2ccncc2)c1,2.765,10.51,-
CCn1c(C2CCNCC2)nn(CCn2cncn2)c1=O,13.95,14.6,16.42
CCOCc1ccccc1NC(=O)NCC(C)(O)c1cccs1 (configuration not stated),6.634,11.56,3.37
CCNc1nc2c(s1)C(=O)CN(C(=O)NCCc1ccccc1)C2,-17.53,9.79,-
Cc1cncc(C(=O)N2CCCC(O)(CN3CCCC3)C2)c1 (configuration not stated),-43.44,4.91,10.74
O=C(O)C(F)(F)F.[H][C@]12CCC[C@@]1(COCC1CCOCC1)CN(C(=O)c1ccccn1)C2,-28.52,-,-19.9
O=C(C1COCCO1)N1CCN(CC(F)(F)F)c2ccccc21 (configuration not stated),14.43,17.14,21.56
O=C(Nc1nnc(C(F)F)s1)N[C@H](CCO)c1ccccc1,18.43,11.05,-
O=C(O)C(F)(F)F.O=C(O)C(F)(F)F.[H][C@@]12CC(=O)N(Cc3cccc(C)n3)[C@@]1([H])CCN2Cc1ccsc1,-5.235,-,34.8
CC(=O)c1cn(CC(=O)N[C@H](C(=O)O)C(C)C)c2ccccc12,11.94,12.66,21.51
COCCN1CCn2cc(CNC(=O)C3CCC3)nc2C1,-14.25,8.889,17.75
[H][C@]12C[C@H](CNC(=O)c3cccn3C)O[C@]1([H])CN(C(=O)c1ccno1)C2,-5.071,-,14.57
CNC(=O)C1CN(C(C)C)CCN1c1ncccn1 (configuration not stated),12.73,9.841,5.538
CC(C)C(NC(=O)N1CCS(=O)(=O)CC1)c1ccccc1Cl (configuration not stated),12.2,20,13.03
CCc1ncnc2c1CCN(Cc1ccc(OC)cc1)CC2.O=C(O)C(F)(F)F,6.103,-,12.97
CCn1cnnc1CNC(=O)N1CCN(CC(C)C)CC1,-0.3914,13.81,-
Cc1cc(C(=O)N2CCC[C@]3(C[C@@H](OCC4CC4)CO3)C2)no1,16.62,6.468,23.74
CCNCc1ccc(OCc2ccc3c(c2)OCCO3)cc1.Cl,-29.55,-,-19.66
O=C(NCc1ccccc1CO)Nc1ccc2c(c1)CCC2,-8.02,16.48,-
O=C(O)C(F)(F)F.[H][C@@]12COC[C@H](C(=O)N3CCOCC3)[C@]1([H])CN(Cc1c(C)noc1C)C2,-1.937,-,21.58
O=C(O)C(F)(F)F.O=C(O)C(F)(F)F.[H][C@@]12COC[C@]1(COc1ccccn1)CN(Cc1ccoc1)C2,-4.608,-,16.55
COc1ccc(CNCCc2cc(F)cc3c2OCOC3)cc1O,5.294,19.47,7.188
Cc1nn(Cc2ccc(C(=O)NCCCN3CCOCC3)o2)c(C)c1Cl,-17.62,11.29,-8.792
CCN(CC)Cc1ccc(C(=O)N2CCCC2c2cnn(C)c2)o1 (configuration not stated),-13.69,9.091,-
CCc1nc(CC(=O)N2CCOCC2c2ncon2)cs1 (configuration not stated),20.69,9.206,-1.98
COCCNC(=O)C1CN(Cc2ccncc2)Cc2ccnn2C1.O=C(O)C(F)(F)F.O=C(O)C(F)(F)F.O=C(O)C(F)(F)F (configuration not stated),-1.283,-,9.596
Cc1csc(C2CCCCN2C(=O)c2c[nH]c(C)n2)n1 (configuration not stated),0.09364,17.05,-
c1ccc(CN2C[C@H]3CC[C@@H]2CN(Cc2nnc(C4CC4)o2)C3)cc1,-,12.81,-
O=C(O)C(F)(F)F.O=C(O)C(F)(F)F.[H][C@]12C[C@@H](C(=O)Nc3cccnc3)CO[C@@]1([H])CCN(C(C)C)C2,-29.66,-,-27.8
Cc1nc(CN2CCCC(c3cnccn3)C2)cs1 (configuration not stated),-1.651,13.71,24.1
CCN(CC1CCOC1)C(=O)c1ccn(-c2ccc(OC)cc2)n1 (configuration not stated),-2.88,6.091,-
CN(CCC(=O)N1CCc2sccc2C1)Cc1ccc2c(c1)OCCO2,-11.03,15.06,-
CN1CCC2(Cc3ccccc3NC2=O)C1 (configuration not stated),6.325,13.14,-22.13
Cc1nc(O)ccc1C(=O)NCc1ncccc1F,-24.74,10.08,-7.603
CC(=O)c1cccc(NC(=O)NCCCc2nc(C(C)C)no2)c1,-21.79,13.05,25.12
COc1c(CNCCNC(=O)c2ccccc2)c(C)nn1C,-,24.58,-
C=Cc1ccc(CN2CCCC3(CNC(=O)c4ccccc4O3)C2)cc1 (configuration not stated),-6.668,17.71,33.56
COc1cc(COCC2CCN(Cc3ccccn3)CC2)cc(OC)c1,-,10.45,-
Cc1cnc(N2CCN3C[C@H](OCc4cccc(C)n4)C[C@H]3C2)nc1,-,13.41,-
COCCn1ccc2c(C(=O)NC3CN4CCC3CC4)cccc21 (configuration not stated),11.56,11.82,-13.63
NC(=O)CCC1CCCN(c2ccnc3cc(F)ccc23)C1 (configuration not stated),-13.98,3.303,-0.6099
Cc1nc(CCNC(=O)C2CC(=O)N(C(C)C)C2)sc1C (configuration not stated),-10.89,18.73,-4.738
Fc1ccc(CN2CCn3cc(Cn4cccn4)nc3C2)cc1.O=C(O)C(F)(F)F,-34.71,-,8.596
N#Cc1ccc(N2CCCC3(CCC(=O)N3CC3CC3)CC2)nc1.O=C(O)C(F)(F)F (configuration not stated),42.6,-,-1.274
O=C(CN1CCCC1c1nc(Cc2ccc(F)cc2)no1)NC1CC1 (configuration not stated),-1.164,11.68,28.34
Cc1nnc(NCC2(c3ccccc3)CCOCC2)c(C#N)c1C,-2.018,19.02,6.568
COc1ccc(CN2CCN(CC3CC3)[C@@H]3CS(=O)(=O)C[C@@H]32)cc1O,-,10.06,-
Cc1csc(CNc2cnc3c(c2)c(C)nn3C)n1,-0.9948,6.178,26.94
CS(=O)(=O)c1ccccc1C(=O)NCC1Cc2ccccc2O1 (configuration not stated),4.868,-0.4926,-17.45
CC(C)N1CCN(c2ccc3ccc(C(=O)NC4CCCC4)cn23)CC1,-,30.25,-
COCc1cc(CNC(=O)c2c(C)cc(C)[nH]c2=O)n[nH]1,-7.359,5.245,-10.51
CN(C)C(=O)NCc1nnn2c1CN(CC1CCOCC1)CCC2,-,5.479,-
Cn1cc(CN2CCC(CCC(=O)Nc3ccccc3Cl)CC2)cn1,-13.5,12.11,-11.08
O=C1C(Sc2cnn[nH]2)CCCN1c1ccccc1F (configuration not stated),-10.22,4.01,-11.08
CN(Cc1ccc(-n2cccn2)cc1)c1cc(N)nc(N)n1,-19.48,5.651,0.9302
CC(C)NC(=O)[C@@H]1C[C@@H](N)CN1C(=O)CCSCc1ccc(F)cc1,5.625,10.78,-3.086
O=C(CCC(F)(F)F)N1CCCC(CO)(CC2CC2)C1 (configuration not stated),38.14,10.66,-
Cc1cccc(C(=O)N2CC[C@H]3C[C@@H](C)O[C@@H]3C2)n1,-,8.357,-
CN(Cc1ccco1)C(=O)C1=NN(C)C(=O)CC1,-8.687,14.72,-32.34
COC(=O)N1CCc2ccccc2C1C(=O)NCc1ccncc1 (configuration not stated),7.413,12.95,18.44
Cc1cc(C)n(CC2CCCCN2CC(=O)Nc2cccnc2)n1 (configuration not stated),-23.34,4.878,2.522
CC(=O)N1CCCC(C(=O)NCc2noc(Cc3ccccc3)n2)C1 (configuration not stated),8.729,9.966,-
COCC(=O)NCC1Cn2nnc(-c3ccncc3)c2CO1.O=C(O)C(F)(F)F (configuration not stated),-13.45,-,-4.45
COCCN1CCC(NCc2ccc(C#N)cc2)C1 (configuration not stated),-4.862,9.312,-9.059
NC(=O)c1cc(C2CCCN(C(=O)CCc3cscn3)C2)n[nH]1 (configuration not stated),12.95,12.55,9.521
O=C(NCCC1Cc2ccccc2C1)N1CCCC(O)C1 (configuration not stated),-18.1,7.186,-22.65
CN(C[C@@H]1CCC[C@@H]2CN(Cc3cccnc3)C[C@@H]21)C1CC1,-,14.98,-
CCCc1noc(CN2CCC(NC(=O)c3ccc(C)s3)CC2)n1,-26.55,6.812,12.47
Cc1cc(CNC(=O)N2CCN(Cc3ccccc3)C[C@H]2C)on1,0.1715,15.03,12.86
O=C(O)C(F)(F)F.[H][C@]12CCC[C@@H](CNc3nccn3C)[C@@]1([H])CN(Cc1cnn(C)c1)C2,-20.65,-,26.38
Cn1cc(CN2CCc3onc(COc4cccnc4)c3C2)cn1,-,-280.9,-
Cc1n[nH]cc1CNC1CCN(c2ccc(F)cc2)CC1.Cl,-9.75,-,24.77
O=c1c(NCCOCCO)c(N2CCN(c3ccccc3)CC2)c1=O,-0.9851,18.08,12.31
Cc1cc(-c2cnc(NC3CC3)nc2-c2ccco2)on1,1.323,13.02,47.86
CCOc1ccc(CC(=O)N2C[C@H](C3CC3)[C@@H](N)C2)cc1,-21.22,7.554,-4.644
COc1ccccc1OCCNCc1c(C)nn(C)c1N(C)C.Cl,31.69,-,-
O=C(CCn1cccn1)NCC(c1cccs1)N1CCCC1 (configuration not stated),-4.523,8.211,-1.069
O=C1CCSCC(C(=O)NCc2nc(-c3ccccc3)no2)N1 (configuration not stated),17.59,13.24,13.08
[H][C@]12CCN(C(=O)COC)[C@@]1([H])CC[C@H](COCC1CCOCC1)O2,3.913,-,20.5
N#Cc1ccc(CN2CCC(c3ccnn3CCO)CC2)cc1,19.86,15.75,20.87
Cc1cccc(N2CCC3(CCCN3Cc3cnn(C)c3C)CC2)n1,17.02,3.97,2.983
CC(=O)N1[C@H](Cn2cncn2)C[C@@H]2CN(c3ncccn3)CC[C@@H]21,-,13.36,-
CC(C)c1ccc(OCCC(=O)N2CCCN(C(N)=O)CC2)cc1,-21.42,22.95,-
CCCC(=O)N1CCC([C@@H]2C[C@H](C(F)(F)F)n3nc(C)cc3N2)CC1,-1.244,14.15,-23.43